Data as given in patent US20120121507A1 (NATIONAL RESEARCH COUNCIL OF CANADA, published 2012).
No constants are given. Whether binding was seen depends on the method and setting. Some entries that bind do so weakly or less than the wild type.

Chains of the proteins cited; added tags and fusions are not shown. Residues count along the entry.
UniProt P10909, residues 23-449: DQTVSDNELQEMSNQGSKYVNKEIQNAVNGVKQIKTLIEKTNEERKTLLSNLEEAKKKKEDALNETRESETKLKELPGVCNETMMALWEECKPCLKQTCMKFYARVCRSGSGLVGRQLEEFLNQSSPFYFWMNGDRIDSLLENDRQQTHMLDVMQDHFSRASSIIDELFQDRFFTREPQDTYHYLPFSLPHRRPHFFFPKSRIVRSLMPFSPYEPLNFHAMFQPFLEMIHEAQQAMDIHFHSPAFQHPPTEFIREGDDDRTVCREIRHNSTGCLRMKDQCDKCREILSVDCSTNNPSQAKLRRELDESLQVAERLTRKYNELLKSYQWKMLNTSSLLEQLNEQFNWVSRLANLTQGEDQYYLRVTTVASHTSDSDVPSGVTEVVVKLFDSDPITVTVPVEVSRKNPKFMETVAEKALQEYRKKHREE

Legend:
[1] = target: T1, recombinant human clusterin (human, UniProt P10909 23-449); assay: STD-NMR, ~1:30 protein:peptide
T1 construct: also called rhCLU; rh-clusterin

[2] = target: T1, recombinant human clusterin; assay: SPR, rhCLU flowed over immobilized P3376
[3] = target: T1, recombinant human clusterin; assay: STD-NMR, 0.15 mM peptide with rh-clusterin at about 1:30 protein:peptide
[4] = target: T1, recombinant human clusterin; assay: SPR
[5] = target: T1, recombinant human clusterin; assay: SPR, summary of FIGS. 5-7
[6] = target: T1, recombinant human clusterin; assay: STD-NMR
[7] = target: T1, recombinant human clusterin; assay: SPR, rh-clusterin flowed over immobilized P3375R
[8] = target: T1, recombinant human clusterin; assay: SPR, rh-clusterin 11 nM-1.4 µM over immobilized P3375R, curvilinear Scatchard plot
[9] = target: T1, recombinant human clusterin; assay: SPR, rh-clusterin 11 nM-1.4 µM over immobilized P3376R, curvilinear Scatchard plot
[10] = target: T1, recombinant human clusterin; assay: SPR, rh-clusterin flowed over immobilized P3376R
[11] = target: T1, recombinant human clusterin; assay: STD-NMR, 0.15 mM peptide with and without rh-clusterin at about 1:30 protein:peptide
[12] = target: T1, recombinant human clusterin; assay: SPR, rhCLU flowed over immobilized P3378
[13] = target: T1, recombinant human clusterin; assay: SPR, rh-clusterin preincubated with mAb 16B5 (ratio 1:1.7) flowed over immobilized P3378
[14] = target: T1, recombinant human clusterin; assay: SPR, rh-clusterin alone flowed over immobilized P3378
[15] = target: T1, recombinant human clusterin; assay: STD-NMR, P3378 with and without rh-clusterin
[16] = target: T1, recombinant human clusterin; assay: SPR, rhCLU flowed over immobilized P3375

Measured: binding

B1: P3376 synthetic peptide (SHALPLTWSTAA with C-terminal SGSGC extension) (peptide)
peptide: SHALPLTWSTAASGSGC
notes: In SPR it was immobilised through the C-terminal Cys (thioether); In STD-NMR it was free in solution
binds: [1] | [2] | [3] | [4] | [5] | [6]

LSLYHTNTQFWQSGSGC (Immobilised on the SPR chip) [P3375R, randomized version of P3375 (LSLYHTNTQFWQSGSGC)]
binds: [7] | [8]

AWHTLASTSLAPSGSGC [P3376R, randomized version of P3376 (…)]
binds: [9] | [10]

B2: P3378 synthetic peptide (HPLSKHPYWSQP with C-terminal SGSGC extension) (peptide)
peptide: HPLSKHPYWSQPSGSGC
notes: Synthesised by Fmoc chemistry; In SPR it was immobilised on a CM5 chip by a thioether bond from the C-terminal Cys to maleimide; In STD-NMR it was free in solution
binds: [11] | [1] | [12] | [13] | [14] | [4] | [15] | [5] | [6]

B3: P3375 synthetic peptide (NTYWSQLLHFQT with C-terminal SGSGC extension) (peptide)
peptide: NTYWSQLLHFQTSGSGC
notes: as for B1
binds: [1] | [3] | [16] | [4] | [5] | [6]
